According to US4038402A, “Method of effecting antihistaminic, antiserotonin and antiallergic actions” (priority 1974, dated 1977):

Tested on: serotonin
Settings: 30 mg/kg in the stomach; serotonin aerosol

CN(C)CCOC(c1ccccc1)c1ccccc1 [Dimedrol]
increase of the latent period of the intoxication reaction: 3-4 times
intensity of the intoxication reaction: decreases significantly
lethal outcomes: prevents lethal outcomes
